Measured values reported in PubChem BioAssay AID1671190 (National Center for Advancing Translational Sciences (NCATS), 2021).
About 6,100 (1.1%) of roughly 580,000 compounds were called active. Inconclusive means that the source gave no clear call. Such entries were picked first, then a sample of the others. The call rests on the fitted dose curve; in most records, active means well fitted inhibition curve with a large enough effect; inconclusive means small, poorly fitted or top-dose-only effect, or another doubt; inactive means no such curve, though single readings can be large or run the other way. Where the call is inconclusive, the potency comes from a doubtful curve fit.

Protein sequences, listed by entry. Tags and fused reporters are not part of them. Lines headed by an entry give the natural chain unless they say otherwise; changes in a name come on top.
UniProt P18054: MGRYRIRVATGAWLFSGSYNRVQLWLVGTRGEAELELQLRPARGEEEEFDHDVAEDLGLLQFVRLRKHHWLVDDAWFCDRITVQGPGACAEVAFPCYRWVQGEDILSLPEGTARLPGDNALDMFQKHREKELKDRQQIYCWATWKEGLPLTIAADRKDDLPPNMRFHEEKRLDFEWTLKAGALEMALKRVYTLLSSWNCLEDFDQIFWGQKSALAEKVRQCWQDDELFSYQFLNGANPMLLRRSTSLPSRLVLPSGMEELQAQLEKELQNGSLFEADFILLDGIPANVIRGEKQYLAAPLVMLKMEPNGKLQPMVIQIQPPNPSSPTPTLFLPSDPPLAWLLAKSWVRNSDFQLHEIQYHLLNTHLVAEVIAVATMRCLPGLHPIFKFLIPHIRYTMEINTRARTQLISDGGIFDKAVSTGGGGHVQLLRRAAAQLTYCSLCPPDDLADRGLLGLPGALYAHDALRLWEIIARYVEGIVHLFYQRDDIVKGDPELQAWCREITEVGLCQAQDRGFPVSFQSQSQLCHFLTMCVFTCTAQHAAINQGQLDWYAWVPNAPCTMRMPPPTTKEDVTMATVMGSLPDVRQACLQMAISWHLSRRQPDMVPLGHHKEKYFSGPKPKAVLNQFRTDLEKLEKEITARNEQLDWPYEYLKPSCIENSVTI

Target: Polyunsaturated fatty acid lipoxygenase ALOX12 (Homo sapiens) (UniProt P18054)
Assay: Primary qHTS assay for inhibitors of human arachidonate 12S-lipoxygenase (ALOX12): Round 2
Settings: purified 12hLO, xylenol orange hydroperoxide absorbance; activity change, negative = inhibition: at 108 µM (top of the series) unless noted
Summary of the method: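 Purified human 12hLO (150 nM final) in 25 mM Hepes, 0.01% Triton X-100, pH 7.0 was preincubated 15 min at room temperature with compound. Then 40 uM arachidonic acid was added, 30 min. Hydroperoxide was read by Fe-XO absorbance ratio 573/405 nm.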
On the % scale 0 is the no-effect control and ±100 the full control effect; potency means the concentration at half of the fitted maximal effect.

| SMILES | Potency | activity change, negative = inhibition |
| --- | --- | --- |
| O=C(NCC1CNCCOC1)c1ccc2nc(-c3ccc(F)cc3)cn2c1 (stereo unspecified) | inconclusive: 11.2 µM [inhibitor, partial curve, poor fit] |  |
| CC1=C(C(=O)OCc2ccccc2)C(c2ccccc2[N+](=O)[O-])NC(=O)N1C (stereo unspecified) | active: 15.8 µM |  |
| O=C(CSc1ncccc1-c1nc2ccccc2[nH]1)N1CCN(c2ccccc2F)CC1 | inconclusive: 39.8 µM [inhibitor, partial curve, poor fit] |  |
| Cc1ccc(C)c(C(=O)c2c(N)c(-c3nc(-c4ccc5c(c4)OCO5)cs3)c3ccccn23)c1 | inconclusive: 3.55 µM [inhibitor, full curve, poor fit] |  |
| c1ccc(Oc2nc(-c3ccncc3)nc3ccccc23)cc1 | inconclusive: 3.55 µM [inhibitor, full curve, poor fit] |  |
| CN1CCN(S(=O)(=O)c2cccc(C(=O)Nc3sccc3C#N)c2)CC1 | inconclusive: 28.2 µM [inhibitor, partial curve, poor fit] |  |
| COc1ccc(C2C(C#N)=C(N)OC(C(C)(C)C)=C2C#N)cc1OC (stereo unspecified) | inconclusive: 126 µM [inhibitor, single point] |  |
| COc1ccc(OC)c(S(=O)(=O)Nc2ccc(-c3ccc4nncn4n3)cc2)c1 | inconclusive: 89.1 µM [inhibitor, single point] |  |
| COc1ccc(CNc2oc(-c3ccco3)nc2C#N)cc1 | inconclusive: 50.1 µM [inhibitor, partial curve, poor fit] |  |
| C[C@@H](Cc1cc2c(c(C(N)=O)c1)N(CCCO)CC2)NCCOc1ccccc1OCC(F)(F)F | inconclusive: 8.63 µM [inhibitor, single point] |  |
| Cc1cc(/C=C2/SC(=S)N(c3cccc(Cl)c3)C2=O)c(C)n1-c1cccnc1 | inconclusive: 20 µM [inhibitor, partial curve, poor fit] |  |
| Cc1ccc(N(C(=O)c2snc(C(N)=O)c2N)C(C(=O)NCC2CCCO2)c2ccc(C)o2)c(C)c1 (stereo unspecified) | inconclusive: 141 µM [inhibitor, partial curve, poor fit] |  |
| COc1cc(NC(=O)CSc2nc3ccccc3nc2Cc2ccc(Cl)cc2)cc(OC)c1 |  | inactive: -15% |
| O=C1Nc2ccc(Cl)cc2C(C#CC2CC2)(C(F)(F)F)O1 (stereo unspecified) | inconclusive: 70.8 µM [inhibitor, partial curve, poor fit] |  |
| CCCC(C)NC(=O)c1nc(-c2ccccc2)n(-c2ccccc2)n1 (stereo unspecified) | inconclusive: 79.4 µM [inhibitor, single point] |  |
| O=c1cc(CSc2nnnn2-c2ccccc2)[nH]n1-c1ccc(F)cc1 | active: 17.8 µM |  |

2 of the compounds above, tab-delimited:
SMILES	Potency	activity change, negative = inhibition
O=C(NCC1CNCCOC1)c1ccc2nc(-c3ccc(F)cc3)cn2c1 (stereo unspecified)	inconclusive: 11.2 µM [inhibitor, partial curve, poor fit]	
CC1=C(C(=O)OCc2ccccc2)C(c2ccccc2[N+](=O)[O-])NC(=O)N1C (stereo unspecified)	active: 15.8 µM	
